PubChem BioAssay AID1671190 (National Center for Advancing Translational Sciences (NCATS), 2021)
Where “and” joins values, the source holds several entries; their conditions need not be identical. Equal entries are not always repeated. Screen size: about 580,000 compounds; about 6,100 (1.1%) were called active. This list was built around the results that the source calls inconclusive (neither active nor inactive); the mix of calls is not that of the screen. Calls follow the shape of the dose curve; as a rule, active = well fitted inhibition curve with a large enough effect; inconclusive = small, poorly fitted or top-dose-only effect, or another doubt; inactive = no such curve, though single readings can be large or run the other way. A potency beside an inconclusive call is a rough fit, not a confirmed value.
% is scaled to controls: 0 for no effect and ±100 for the full control effect; potency is read from the fitted curve at half-maximal effect.

The chains behind the UniProt entries cited, without tags or fusion partners.
UniProt P18054, whole entry, looked up: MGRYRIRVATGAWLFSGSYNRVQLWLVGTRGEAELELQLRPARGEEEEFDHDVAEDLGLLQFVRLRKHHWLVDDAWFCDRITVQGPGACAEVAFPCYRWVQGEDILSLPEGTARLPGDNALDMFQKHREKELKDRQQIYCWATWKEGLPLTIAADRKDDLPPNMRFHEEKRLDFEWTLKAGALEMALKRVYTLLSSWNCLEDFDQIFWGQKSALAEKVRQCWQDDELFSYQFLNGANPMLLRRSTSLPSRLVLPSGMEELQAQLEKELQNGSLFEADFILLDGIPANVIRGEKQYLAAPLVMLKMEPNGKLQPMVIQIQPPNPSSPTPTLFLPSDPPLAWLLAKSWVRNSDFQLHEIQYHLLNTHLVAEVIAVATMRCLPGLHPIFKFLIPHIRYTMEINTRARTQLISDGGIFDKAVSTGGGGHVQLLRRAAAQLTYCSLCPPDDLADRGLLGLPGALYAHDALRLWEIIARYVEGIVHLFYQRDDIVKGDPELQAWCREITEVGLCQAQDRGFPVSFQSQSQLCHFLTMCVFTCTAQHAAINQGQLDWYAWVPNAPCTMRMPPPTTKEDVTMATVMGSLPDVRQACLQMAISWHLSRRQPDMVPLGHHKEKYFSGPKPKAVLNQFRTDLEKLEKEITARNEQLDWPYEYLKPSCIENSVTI

What follows are compounds tested against Polyunsaturated fatty acid lipoxygenase ALOX12 (Homo sapiens) (UniProt P18054) (assay: Primary qHTS assay for inhibitors of human arachidonate 12S-lipoxygenase (ALOX12): Round 2). Conditions: purified 12hLO, xylenol orange hydroperoxide absorbance; activity change, negative = inhibition: at 108 µM (top of the series) unless noted.
Outline: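 Hydroperoxide product was detected by ferrous iron/xylenol orange as the 573 to 405 nm absorbance ratio. Arachidonic acid at 40 uM (final) was turned over for 30 min at room temperature by 150 nM human 12hLO, pH 7.0 Hepes buffer, after 15 min compound preincubation.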
With `CCCN1C(=O)C(C)=C(C)C1c1cn(C)c2ccccc12` (stereo unspecified) the “activity change, negative = inhibition” value was inactive: -26.9%. For `Cc1nccn1CCOc1ccc(Cl)cc1`, the Potency was inconclusive: 0.355 µM [inhibitor, full curve, poor fit]. In the case of `CCCCNC(=O)C(CC)Sc1nc2ccccc2c(=O)n1CCc1ccc(OC)c(OC)c1` (stereo unspecified), the Potency is reported as inconclusive: 100 µM [inhibitor, partial curve, poor fit]. With `CC(C)Oc1ccc2c(-c3ccccc3)cc(=O)oc2c1` the Potency was inconclusive: 112 µM [inhibitor, single point]. In the case of `CCS(=O)(=O)N1CCN(C(=O)c2ccccc2[N+](=O)[O-])CC1`, the Potency is reported as inconclusive: 31.6 µM [inhibitor, partial curve, poor fit]. With `COCc1ccc(CNC(=O)Cc2cccs2)cc1` the Potency was inconclusive: 3.16 µM [inhibitor, full curve, poor fit]. In the case of `COCCN(CCOC)c1ncnc2c1c(-c1ccccc1)cn2-c1ccc(C)c(Cl)c1`, the Potency is reported as inconclusive: 100 µM [inhibitor, single point]. In the case of `C#CC[N+]1(C)C(C)CCCC1C` (stereo unspecified), the Potency is reported as inconclusive: 39.8 µM [inhibitor, partial curve, poor fit]. For `COc1ccccc1-n1c(-c2cn(C)nc2C)n[nH]c1=S`, the “activity change, negative = inhibition” value was inactive: -26.6%. For `CC(C)c1ccc(S(=O)(=O)N2CCN(CC(=O)c3ccc(O)c(O)c3)CC2)cc1`, the Potency was inconclusive: 3.55 µM [inhibitor, full curve]. In the case of `Cc1ccc(-c2cc(Cc3ccccn3)c(=O)[nH]n2)cc1`, the “activity change, negative = inhibition” value is reported as inactive: 7.88%. `O=C(NCC1CCCCC1)C1CCN(C(=O)NC2CCCCC2)CC1` was tested, and the Potency was inconclusive: 3.16 µM [inhibitor, full curve, poor fit]. `Clc1ccccc1-c1nc(NCc2cccs2)c2ccccc2n1` was tested, and the Potency was inconclusive: 11.2 µM [inhibitor, full curve, poor fit]. With `CCN(CC)C(=O)C1CCCN(Cc2ccc3ccccc3c2)C1` (stereo unspecified) the Potency was inconclusive: 2 µM [inhibitor, full curve]. For `COc1ccc(C(=O)Nc2ccc(NC(=O)Cc3ccccc3)cn2)cc1`, the Potency was inconclusive: 14.1 µM [inhibitor, full curve]. `CCOC(=O)C1=C(C)N(C)C(=S)NC1c1ccc(Cl)cc1` (stereo unspecified) was tested, and the Potency was inconclusive: 44.7 µM [inhibitor, partial curve, poor fit]. In the case of `Nc1ccc[n+](CC(=O)c2ccccc2)c1`, the Potency is reported as inconclusive: 35.5 µM [inhibitor, partial curve, poor fit]. `CC(=O)NC1(C)CCCN(c2ccc(Oc3ccccc3)cc2)C1` (stereo unspecified) was tested, and the Potency was inconclusive: 50.1 µM [inhibitor, partial curve]. In the case of `Oc1ccccc1CN1CCNc2cc(-c3ccccc3)ncc2C1`, the Potency is reported as inconclusive: 50.1 µM [inhibitor, partial curve, poor fit]. `COc1cc(-c2cc(OC)c3c(C)oc(C)c3c(=O)c2)ccc1OC(=O)c1cccc(Cl)c1` was tested, and the Potency was inconclusive: 44.7 µM [inhibitor, partial curve, poor fit]. In the case of `COc1ccc(/C=N/NC(=S)Nc2ccccc2)cc1COc1ccc(F)cc1F`, the Potency is reported as inconclusive: 44.7 µM [inhibitor, partial curve, poor fit]. `COc1cccc(CC(=O)N2CCCCCCN(C)C(=O)[C@H]3CCC[C@H]32)c1` was tested, and the Potency was inconclusive: 100 µM [inhibitor, partial curve, poor fit]. In the case of `COc1ccc(NC(=O)Cn2ncc3ccccc3c2=O)cc1`, the Potency is reported as inconclusive: 22.4 µM [inhibitor, partial curve, poor fit]. `COC(=O)C1(C)CCCC2(C)c3cc(OC)ccc3C(=O)C(Br)C12` (stereo unspecified) was tested, and the “activity change, negative = inhibition” value was inactive: -26.3%. For `COc1ccc(C(=O)NNC(=S)NC(=O)c2cccs2)cc1`, the Potency was inconclusive: 56.2 µM [inhibitor, partial curve, poor fit]. For `COCc1ccc(C(=O)OCc2cc3ccccc3o2)cc1`, the “activity change, negative = inhibition” value was inactive: -4.02%. With `Cc1ccc(-n2c(C3CCN(C(=O)Cc4c(F)cccc4Cl)CC3)n[nH]c2=O)cc1` the Potency was inconclusive: 89.1 µM [inhibitor, single point]. With `CC(=O)Nc1ccc(/C=N/NC(=O)c2cc3ccccc3nc2C)cc1` the “activity change, negative = inhibition” value was inactive: 20.3%. In the case of `Cc1cc(C)c2ccc(Cl)cc2n1`, the “activity change, negative = inhibition” value is reported as inactive: -10.9%. In the case of `COc1ccc(-n2c(=S)[nH]c3cc(C(=O)N(C)Cc4ccccc4)ccc3c2=O)cc1`, the Potency is reported as inconclusive: 63.1 µM [inhibitor, partial curve, poor fit]. With `CN1C(=S)SC(C)(C)C1(C)NO` (stereo unspecified) the Potency was inconclusive: 39.8 µM [inhibitor, partial curve, poor fit]. In the case of `COc1ccccc1/C=C/C=N/n1c(-c2ccc(Cl)cc2Cl)n[nH]c1=S`, the Potency is reported as inconclusive: 0.355 µM [inhibitor, full curve, poor fit]. For `CCOC(=O)C1(CC2CC2)CCN(Cc2ccc(C(=O)OC)cc2)CC1`, the “activity change, negative = inhibition” value was inactive: -3.41%. In the case of `O=C1Nc2ccccc2CCC1n1nc(-c2ccc(Br)cc2)ccc1=O` (stereo unspecified), the “activity change, negative = inhibition” value is reported as inactive: -1.25%. `O=C(CNc1ccc(Br)cc1)NC(=O)NC1CCCCC1` was tested, and the Potency was inconclusive: 50.1 µM [inhibitor, partial curve, poor fit]. For `CCN(CC(=O)Nc1c(F)cccc1F)C(=O)CCN1C(=O)C2CC=CCC2C1=O` (stereo unspecified), the Potency was inconclusive: 2.82 µM [inhibitor, partial curve, poor fit]. For `COc1ccc(Cl)cc1N1C(=O)CN(Cc2cc(OC)c(OC)c(OC)c2)C1=S`, the Potency was inconclusive: 39.8 µM [inhibitor, partial curve, poor fit]. `CNC(=O)C1=C(C)Nc2nc3ccccc3n2C1c1ccc(F)cc1` (stereo unspecified) was tested, and the “activity change, negative = inhibition” value was inactive: -12.2%. With `N#Cc1ccc(C(=O)NC2CCSc3c(F)cccc32)cc1` (stereo unspecified) the “activity change, negative = inhibition” value was inactive: 4.35%. With `O=C(NCCNCc1c[nH]c2ccccc12)c1ccc(F)cc1` the Potency was active: 7.94 µM. In the case of `COC(=O)c1ccc(CN2CCc3ccccc32)cc1`, the Potency is reported as inconclusive: 28.2 µM [inhibitor, partial curve, poor fit]. `CC(NC(=O)c1cc(C2CC2)nc2ccccc12)C1CC1` (stereo unspecified) was tested, and the Potency was inconclusive: 39.8 µM [inhibitor, partial curve]. In the case of `Cc1ccc(C(=O)NCCC2=CCCCC2)c(C)c1`, the Potency is reported as inconclusive: 35.5 µM [inhibitor, single point]. With `CN1CCN(C(CNC(=O)C(=O)Nc2cccc(Cl)c2)c2ccc3c(c2)OCO3)CC1` (stereo unspecified) the Potency was inconclusive: 89.1 µM [inhibitor, partial curve, poor fit] and inconclusive: 50.1 µM [inhibitor, partial curve, poor fit]. `Cc1ccc(Cl)c(OCCCCN(C)Cc2ccccc2)c1` was tested, and the “activity change, negative = inhibition” value was inactive: 0%. `CCN1CCc2c(sc(NC(=S)NC(=O)c3ccc(Cl)cc3)c2C(N)=O)C1` was tested, and the Potency was inconclusive: 7.94 µM [inhibitor, full curve, poor fit]. For `COCCn1c(SCC(=O)O)nc2c1c(=O)[nH]c(=O)n2C`, the Potency was inconclusive: 11.2 µM [inhibitor, partial curve, poor fit]. `COc1ccc(NC(=O)c2cc(=O)c3ccccc3o2)cc1` was tested, and the Potency was inconclusive: 56.2 µM [inhibitor, single point]. With `Cc1ccc(S(=O)(=O)N/N=C\C=C\c2ccccc2)cc1` the Potency was inconclusive: 56.2 µM [inhibitor, partial curve, poor fit]. In the case of `CCSc1n[nH]c2nc3c(c(=O)n12)C(C)(CC)Cc1ccccc1-3` (stereo unspecified), the Potency is reported as inconclusive: 35.5 µM [inhibitor, partial curve, poor fit]. For `Cn1ccnc1C(O)c1ccccc1` (stereo unspecified), the “activity change, negative = inhibition” value was inactive: -12%. For `COc1ccc(CN2CCC3(C2)C(=NC2CCCC2)NC(=O)N3c2cccnc2)cc1` (stereo unspecified), the Potency was inconclusive: 5.07 µM [inhibitor, single point]. `O=C1NC(=S)SC1=Cc1ccccc1Cl` was tested, and the Potency was inconclusive: 44.7 µM [inhibitor, partial curve, poor fit]. For `CCC(=O)N(CCC(Cc1ccccc1)c1ccc2c(c1)OCO2)Cc1ccccc1F` (stereo unspecified), the “activity change, negative = inhibition” value was inactive: -1.94%. For `Oc1ccc(/C=N\Nc2cc(N3CCOCC3)nc(N3CCOCC3)n2)c(O)c1`, the “activity change, negative = inhibition” value was inactive: 3.52%. In the case of `CCOC(=O)c1c(C)[nH]c(C(=O)COc2ccc3ccc(=O)oc3c2)c1C`, the Potency is reported as inconclusive: 50.1 µM [inhibitor, partial curve, poor fit]. `COc1ccc2[nH]c3c(=O)n(Cc4ccc(C(=O)N5CCC(C(N)=O)CC5)cc4)c(=S)[nH]c3c2c1` was tested, and the Potency was inconclusive: 15.8 µM [inhibitor, partial curve]. `CCN(CC)C(=O)CSc1nc2sc(C)c(C)c2c(=O)[nH]1` was tested, and the Potency was inconclusive: 39.8 µM [inhibitor, partial curve, poor fit] and inconclusive: 50.1 µM [inhibitor, single point]. `C=CCn1c(Cc2cccs2)nnc1SCC(=O)Nc1cc(OC)cc(OC)c1` was tested, and the “activity change, negative = inhibition” value was inactive: -23%. For `Cn1cnnc1CC1CCN(S(=O)(=O)c2ccccc2)CC1`, the Potency was inconclusive: 39.8 µM [inhibitor, full curve, poor fit]. With `COc1cccc2c(=O)c3cccc(N)c3[nH]c12` the Potency was inconclusive: 79.4 µM [inhibitor, partial curve, poor fit]. `COc1ccc(C(O)c2cc3c(cc2NC(=O)c2ccc(Cl)cc2)OCCO3)cc1` (stereo unspecified) was tested, and the Potency was inconclusive: 44.7 µM [inhibitor, partial curve, poor fit]. `O=C(O)CCC(=O)C1CC(=O)OC1C(=O)O` (stereo unspecified) was tested, and the Potency was inconclusive: 35.5 µM [inhibitor, partial curve, poor fit]. In the case of `CC1CCCN(Cc2c(O)ccc3c2O/C(=C\c2ccco2)C3=O)C1` (stereo unspecified), the “activity change, negative = inhibition” value is reported as inactive: -24.8%. For `COc1cccc(/C=N/NC(N)=S)c1OS(=O)(=O)c1ccccc1`, the Potency was inconclusive: 15.8 µM [inhibitor, full curve]. In the case of `NC(=O)C1CCN(Cc2ccc(C(F)(F)F)cc2)CC1`, the Potency is reported as inconclusive: 1.78 µM [inhibitor, full curve].
